What was measured:
[1] = tested on: A549 (human lung carcinoma) cells; assay: Trypan blue dye exclusion assay, A549 cells; format: cell-based; conditions: 72 h
Procedure, shortened: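 Cells were seeded at 5,000/well for 24 h: MRC-5 in EMEM and A549 in F-12K, each with 10% FBS. They were then given test compound (50, 100, 150 μg/mL), cisplatin (0.5, 1, 2 μg/mL) or 0.5% DMSO control for 24–72 h at 37 °C, 5% CO2. After trypsinisation, viable cells were counted by trypan blue exclusion on a hemocytometer (quadruplicate wells). IC50 came from growth curves. At least three repeats.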

[2] = tested on: A549 (human lung carcinoma) cells; assay: MTS cell viability assay, A549 cells; format: cell-based; conditions: results at 72-h

SMILES: N.N.[Cl][Pt][Cl] [DDP, cis-diamminedichloroplatinum II]
- IC50 values, A549 cells [1]: 0.42 ± 0.04 µg/mL
- IC50 values, A549 cells [2]: 0.63 ± 0.03 µg/mL

Reference: PMC10568961 (Research in Pharmaceutical Sciences, 2023)
